Values from PubChem BioAssay AID1671195 (Yale University, 2021).

Aim: 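Genes whose knockdown alters LDL uptake in liver cancer cells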 (primary screen)
Cells: human Huh7 hepatoma cells
Reagent: siRNA pool against human genes, 18 nM
Time to read-out: about 2 to 2.5 days of knockdown, then 8 h LDL uptake
Conditions: DiI-labelled LDL at 30 µg/ml for 8 h, in lipoprotein-deficient serum medium
Measurement: 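Fluorescent LDL signal imaged in cells, scaled to the plate median, robust z-score for each replicate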
Direction: robust z-score: higher = more LDL uptake after knockdown
Hit rule: 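Active when two or more replicates show a robust z-score above 2 or below -2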
This is one part, drawn at random, of about 22,000 reagents tested. Over the whole deposit, about 1,510 (6.9%) are marked active. 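Active includes knockdowns raising or lowering LDL uptake; positive z-scores mean more uptake, negative mean less.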 Entries without a mark were called inactive.

MUC6 [SID442903311]: robust z-score, replicate 1 = -1.41; robust z-score, replicate 2 = -1.16; robust z-score, replicate 3 = -1.24
HCN1 [SID442886250]: robust z-score, replicate 1 = 1.79; robust z-score, replicate 2 = 0.62; robust z-score, replicate 3 = 1.24
CCDC54 [SID442883505]: robust z-score, replicate 1 = 2.77 (active); robust z-score, replicate 2 = 2.48; robust z-score, replicate 3 = 3.05
UBN2 [SID442895774]: robust z-score, replicate 1 = -0.279; robust z-score, replicate 2 = 0.064; robust z-score, replicate 3 = -0.4
ANKRD36B [SID442890821]: robust z-score, replicate 1 = 0.519; robust z-score, replicate 2 = 0.0517; robust z-score, replicate 3 = 0.526
MOXD1 [SID442894322]: robust z-score, replicate 1 = -0.211; robust z-score, replicate 2 = 0.19; robust z-score, replicate 3 = -0.13
SMARCA2 [SID442883621]: robust z-score, replicate 1 = 2.57 (active); robust z-score, replicate 2 = 3.06; robust z-score, replicate 3 = 2.05
TMEM168 [SID442888303]: robust z-score, replicate 1 = 1.23; robust z-score, replicate 2 = 0.369; robust z-score, replicate 3 = 0.643
ZFP30 [SID442894385]: robust z-score, replicate 1 = 0.598; robust z-score, replicate 2 = -0.425; robust z-score, replicate 3 = -0.349
ASB14 [SID442883962]: robust z-score, replicate 1 = 2.83 (active); robust z-score, replicate 2 = 1.28; robust z-score, replicate 3 = 2.25
ALDH1A3 [SID442890465]: robust z-score, replicate 1 = -0.00549; robust z-score, replicate 2 = 0.612; robust z-score, replicate 3 = 0.635
ALDH1A3 [SID442890980]: robust z-score, replicate 1 = 0.487; robust z-score, replicate 2 = -0.253; robust z-score, replicate 3 = 0.804
